Source: PMC3898874
Results are given in words; binding and its absence hold for the method and conditions named. Binding seen in cells or lysates may run through a third protein.

Protein sequences, listed by entry. Tags and fused reporters are not part of them.
UniProt P42224: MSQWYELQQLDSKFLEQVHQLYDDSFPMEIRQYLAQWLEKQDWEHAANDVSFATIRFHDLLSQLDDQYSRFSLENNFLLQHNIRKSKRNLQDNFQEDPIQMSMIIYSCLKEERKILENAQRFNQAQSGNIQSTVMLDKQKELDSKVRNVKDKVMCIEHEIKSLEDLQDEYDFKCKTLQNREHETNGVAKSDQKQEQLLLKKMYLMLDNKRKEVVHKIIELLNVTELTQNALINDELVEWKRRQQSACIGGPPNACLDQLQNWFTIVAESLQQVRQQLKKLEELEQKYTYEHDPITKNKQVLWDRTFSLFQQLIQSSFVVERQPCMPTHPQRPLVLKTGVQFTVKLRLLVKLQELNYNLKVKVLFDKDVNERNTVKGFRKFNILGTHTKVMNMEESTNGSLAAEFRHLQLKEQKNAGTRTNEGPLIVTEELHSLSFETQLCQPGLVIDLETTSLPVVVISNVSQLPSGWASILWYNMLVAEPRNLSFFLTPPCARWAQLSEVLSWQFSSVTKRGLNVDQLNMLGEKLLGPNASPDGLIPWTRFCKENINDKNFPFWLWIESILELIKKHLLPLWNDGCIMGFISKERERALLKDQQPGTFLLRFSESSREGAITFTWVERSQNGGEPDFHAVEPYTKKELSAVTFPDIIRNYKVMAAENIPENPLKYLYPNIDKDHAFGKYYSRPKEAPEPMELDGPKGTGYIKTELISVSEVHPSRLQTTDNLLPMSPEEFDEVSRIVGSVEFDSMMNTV
UniProt P49407: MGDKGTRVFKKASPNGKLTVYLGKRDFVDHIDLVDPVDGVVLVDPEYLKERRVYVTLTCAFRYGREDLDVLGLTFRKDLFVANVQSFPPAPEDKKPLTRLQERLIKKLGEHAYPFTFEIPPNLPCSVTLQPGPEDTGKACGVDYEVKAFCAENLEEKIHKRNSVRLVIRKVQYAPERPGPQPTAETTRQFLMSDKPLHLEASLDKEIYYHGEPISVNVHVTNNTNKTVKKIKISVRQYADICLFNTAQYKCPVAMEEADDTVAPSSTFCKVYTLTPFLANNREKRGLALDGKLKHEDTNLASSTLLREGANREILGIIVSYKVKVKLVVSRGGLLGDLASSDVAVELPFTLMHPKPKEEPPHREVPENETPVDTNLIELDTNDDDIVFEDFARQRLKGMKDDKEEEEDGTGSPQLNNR

Molecular target: FLAG-tagged STAT1 (signal transducer and activator of transcription 1) (UniProt P42224)
Assay: co-IP; anti-FLAG M2 immunoprecipitation (protein A/G PLUS agarose, 4°C) from soluble whole-cell extracts (500 μg protein) of co-transfected HEK293T cells, untreated or treated 1 h with 50 U/ml IFNγ; extraction and wash buffer with 280 mM NaCl, 0.5% NP-40, 50 mM Tris/HCl pH 7.4; quantitative blots with anti-GFP and anti-β-arrestin1; control IP without FLAG-tagged STAT1

Substance: human β-arrestin1-GFP (from UniProt P49407 1-418)
- binding: no binding
